# From the supplement of paper PMC11438910
# Some of the results follow. Most of these values are background signal.
# B1: 4-99.5 (protein)
# chain 1: QVQLQESGPGLVKPSETLSLTCAVSGYSISSGYYWGWIRQPPGKGLEYIGYISGSSGSPYYNPSLKSRVTISKDTSKNQFSLKLSSATAADTAVYYCARRQVGIGFDYWGQGVLVTVSS
# chain 2: QAAPTQPPSVSGSPGQSVTISCTGTSSDIGYYNAVSWYQQHPGKAPKLMIYEVSKRPSGVSDRFSGSKSGNTASLTISGLQAEDEADYYCSSYAGSNTYIFGAGTRLTVL
# How the values were obtained:
# Experiment in all cases: fluorescence intensity of antibody binding to polysaccharide-coupled beads; higher = stronger binding
# [1] = target: pneumococcal polysaccharide C-Poly-1
# Experimental: (§1)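 Recombinant rhesus-murine chimeric IgG1 antibodies were tested against antigen-coupled MagPlex beads in a 96-plex Luminex direct immunoassay (dLIA). The beads carried pneumococcal capsular polysaccharides of 93 serotypes plus C-polysaccharides. Antibody was added at 0.1–12,500 ng/mL for 1 h, then PE anti-mouse IgG, and net MFI was read on a Bio-Plex 3D. Only the rhesus variable regions are printed; constant regions are murine IgG1/kappa/lambda, and the signal peptide is MGWSCIILFLVATATGVHS.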
# [2] = target: pneumococcal polysaccharide C-Poly-2
# Experimental: as §1
# [3] = target: pneumococcal polysaccharide Pn1
# Experimental: as §1
# [4] = target: pneumococcal polysaccharide Pn10A
# Experimental: as §1
# [5] = target: pneumococcal polysaccharide Pn10B
# Experimental: as §1
# [6] = target: pneumococcal polysaccharide Pn10C
# Experimental: as §1
# [7] = target: pneumococcal polysaccharide Pn10F
# Experimental: as §1
# [8] = target: pneumococcal polysaccharide Pn11A
# Experimental: as §1
# [9] = target: pneumococcal polysaccharide Pn11B
# Experimental: as §1
# [10] = target: pneumococcal polysaccharide Pn11C
# Experimental: as §1
# [11] = target: pneumococcal polysaccharide Pn11D
# Experimental: as §1
# [12] = target: pneumococcal polysaccharide Pn11F
# Experimental: as §1
# [13] = antibody concentration 0.1 ng/mL
# [14] = antibody concentration 0.534724 ng/mL
# [15] = antibody concentration 2.8593 ng/mL
# [16] = antibody concentration 15.2894 ng/mL
# [17] = antibody concentration 81.7561 ng/mL
# [18] = antibody concentration 437.17 ng/mL
# [19] = antibody concentration 2337.65 ng/mL
# [20] = antibody concentration 12500 ng/mL
binder,measurement,setting,value
B1,fluorescence intensity,[1]; [13],27.5 MFI
same,fluorescence intensity,[1]; [14],28.8 MFI
same,fluorescence intensity,[1]; [15],28.5 MFI
same,fluorescence intensity,[1]; [16],27.5 MFI
same,fluorescence intensity,[1]; [17],25.2 MFI
same,fluorescence intensity,[1]; [18],26 MFI
same,fluorescence intensity,[1]; [19],31.2 MFI
same,fluorescence intensity,[1]; [20],62.2 MFI
same,fluorescence intensity,[2]; [13],21 MFI
same,fluorescence intensity,[2]; [14],20.5 MFI
same,fluorescence intensity,[2]; [15],21 MFI
same,fluorescence intensity,[2]; [16],21.2 MFI
same,fluorescence intensity,[2]; [17],22 MFI
same,fluorescence intensity,[2]; [18],23.2 MFI
same,fluorescence intensity,[2]; [19],27.2 MFI
same,fluorescence intensity,[2]; [20],50.5 MFI
same,fluorescence intensity,[3]; [13],14 MFI
same,fluorescence intensity,[3]; [14],14 MFI
same,fluorescence intensity,[3]; [15],14.5 MFI
same,fluorescence intensity,[3]; [16],14.5 MFI
same,fluorescence intensity,[3]; [17],14.5 MFI
same,fluorescence intensity,[3]; [18],14.5 MFI
same,fluorescence intensity,[3]; [19],16.8 MFI
same,fluorescence intensity,[3]; [20],24.5 MFI
same,fluorescence intensity,[4]; [13],26.5 MFI
same,fluorescence intensity,[4]; [14],26.5 MFI
same,fluorescence intensity,[4]; [15],27.2 MFI
same,fluorescence intensity,[4]; [16],28 MFI
same,fluorescence intensity,[4]; [17],28 MFI
same,fluorescence intensity,[4]; [18],25.5 MFI
same,fluorescence intensity,[4]; [19],27.8 MFI
same,fluorescence intensity,[4]; [20],30.5 MFI
same,fluorescence intensity,[5]; [13],25 MFI
same,fluorescence intensity,[5]; [14],26.2 MFI
same,fluorescence intensity,[5]; [15],24.5 MFI
same,fluorescence intensity,[5]; [16],23.5 MFI
same,fluorescence intensity,[5]; [17],26.8 MFI
same,fluorescence intensity,[5]; [18],24.5 MFI
same,fluorescence intensity,[5]; [19],27.5 MFI
same,fluorescence intensity,[5]; [20],30.5 MFI
same,fluorescence intensity,[6]; [13],17.2 MFI
same,fluorescence intensity,[6]; [14],18 MFI
same,fluorescence intensity,[6]; [15],17.5 MFI
same,fluorescence intensity,[6]; [16],16 MFI
same,fluorescence intensity,[6]; [17],18.8 MFI
same,fluorescence intensity,[6]; [18],16 MFI
same,fluorescence intensity,[6]; [19],18.5 MFI
same,fluorescence intensity,[6]; [20],22 MFI
same,fluorescence intensity,[7]; [13],18.8 MFI
same,fluorescence intensity,[7]; [14],20.8 MFI
same,fluorescence intensity,[7]; [15],19 MFI
same,fluorescence intensity,[7]; [16],22.2 MFI
same,fluorescence intensity,[7]; [17],20.5 MFI
same,fluorescence intensity,[7]; [18],21.5 MFI
same,fluorescence intensity,[7]; [19],21.5 MFI
same,fluorescence intensity,[7]; [20],24 MFI
same,fluorescence intensity,[8]; [13],29.8 MFI
same,fluorescence intensity,[8]; [14],30.2 MFI
same,fluorescence intensity,[8]; [15],31.5 MFI
same,fluorescence intensity,[8]; [16],30 MFI
same,fluorescence intensity,[8]; [17],30 MFI
same,fluorescence intensity,[8]; [18],33 MFI
same,fluorescence intensity,[8]; [19],32 MFI
same,fluorescence intensity,[8]; [20],40 MFI
same,fluorescence intensity,[9]; [13],28 MFI
same,fluorescence intensity,[9]; [14],25.5 MFI
same,fluorescence intensity,[9]; [15],28.2 MFI
same,fluorescence intensity,[9]; [16],26.2 MFI
same,fluorescence intensity,[9]; [17],29.2 MFI
same,fluorescence intensity,[9]; [18],28.2 MFI
same,fluorescence intensity,[9]; [19],31 MFI
same,fluorescence intensity,[9]; [20],35.5 MFI
same,fluorescence intensity,[10]; [13],22.5 MFI
same,fluorescence intensity,[10]; [14],23 MFI
same,fluorescence intensity,[10]; [15],21.5 MFI
same,fluorescence intensity,[10]; [16],22.8 MFI
same,fluorescence intensity,[10]; [17],22 MFI
same,fluorescence intensity,[10]; [18],23 MFI
same,fluorescence intensity,[10]; [19],27.5 MFI
same,fluorescence intensity,[10]; [20],74.8 MFI
same,fluorescence intensity,[11]; [13],26.5 MFI
same,fluorescence intensity,[11]; [14],23.5 MFI
same,fluorescence intensity,[11]; [15],23.5 MFI
same,fluorescence intensity,[11]; [16],22 MFI
same,fluorescence intensity,[11]; [17],22.2 MFI
same,fluorescence intensity,[11]; [18],26 MFI
same,fluorescence intensity,[11]; [19],26 MFI
same,fluorescence intensity,[11]; [20],48 MFI
same,fluorescence intensity,[12]; [13],14.5 MFI
same,fluorescence intensity,[12]; [14],12.5 MFI

# 6 entries from above, as tab-separated lines.
binder	measurement	setting	value
B1	fluorescence intensity	[7]; [19]	21.5 MFI
same	fluorescence intensity	[7]; [20]	24 MFI
same	fluorescence intensity	[8]; [13]	29.8 MFI
same	fluorescence intensity	[8]; [14]	30.2 MFI
same	fluorescence intensity	[8]; [15]	31.5 MFI
same	fluorescence intensity	[8]; [16]	30 MFI

# Exported as tab-separated lines: entries from further up
binder	measurement	setting	value
B1	fluorescence intensity	[6]; [20]	22 MFI
same	fluorescence intensity	[10]; [18]	23 MFI
